PubChem BioAssay AID602196 – INSERM, 2012

Screen: 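Knock-downs that protect lung cancer cells from cisplatin or sensitise them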
Cells: human A549 lung cancer cells
Knock-down reagent: siRNA pair against human genes
Time to read-out: 48 h transfection before cisplatin; time from cisplatin to read-out not stated
Treatment: cisplatin at a dose killing half of control-siRNA cells; exact dose and duration not given
Detection: 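Shift in cisplatin death relative to control siRNA, from -50 (all cells die) to +50 (no cells die); siRNAs harmful on their own scored 0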
Direction: two-siRNA summed score (-2 to +2): higher = both siRNAs protect from cisplatin killing; -2 means both sensitise; mean protection from cisplatin (shift in death): higher = protection from cisplatin killing
Rule for the call: 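Each siRNA scores 0 if harmful alone by LDH or WST-1, otherwise +1 if it reduces and -1 if it increases cisplatin killing; a gene is active when both siRNAs agree (sum +2 or -2)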
Meaning of the calls: active = both siRNAs shift cisplatin killing the same way; inactive = no consistent shift, or siRNA harmful alone
In all, the deposit lists about 23,000 reagents; this is an unselected part. 455 of all reagents (2%) count as active. 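Active includes both protection and sensitisation; some change values fall well beyond the stated -50 to +50 range.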 Entries without a mark were called inactive. Further read-outs or replicates are left out here. Not given: the amount of reagent.

For SLC22A17, what was measured?
two-siRNA summed score (-2 to +2): 0; mean protection from cisplatin (shift in death) (%): -2.3

What did the screen give for MAP1LC3B?
two-siRNA summed score (-2 to +2): 0; mean protection from cisplatin (shift in death) (%): 3

For CXADR, what does the deposit list?
two-siRNA summed score (-2 to +2): -1; mean protection from cisplatin (shift in death) (%): -19.2

How did the screen score GPR87?
two-siRNA summed score (-2 to +2): 0; mean protection from cisplatin (shift in death) (%): 1.2

With PRELID3B, what does the deposit list?
two-siRNA summed score (-2 to +2): 0; mean protection from cisplatin (shift in death) (%): 6.6

What is on record for WIZ?
two-siRNA summed score (-2 to +2): 0; mean protection from cisplatin (shift in death) (%): 4.9

With IDO1, what was measured?
two-siRNA summed score (-2 to +2): -1; mean protection from cisplatin (shift in death) (%): -16.1

How did the screen score OR4A16?
two-siRNA summed score (-2 to +2): 0; mean protection from cisplatin (shift in death) (%): -4.9

What is on record for STARD8?
two-siRNA summed score (-2 to +2): -1; mean protection from cisplatin (shift in death) (%): 0.9

What is on record for RUFY2?
two-siRNA summed score (-2 to +2): 0; mean protection from cisplatin (shift in death) (%): -8.9

For DIPK1B, what does the deposit list?
two-siRNA summed score (-2 to +2): 0; mean protection from cisplatin (shift in death) (%): 6.7

What did the screen give for LOC340096?
two-siRNA summed score (-2 to +2): -1; mean protection from cisplatin (shift in death) (%): 1.9

2 of these entries, reformatted:
{"gene knocked down":"STARD8","two-siRNA summed score (-2 to +2)":-1,"mean protection from cisplatin (shift in death) (%)":0.9}
{"gene knocked down":"RUFY2","two-siRNA summed score (-2 to +2)":0,"mean protection from cisplatin (shift in death) (%)":-8.9}
